PubChem BioAssay AID743454 | Peter MacCallum Cancer Centre – 2014

Screen: 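Knock-downs lowering viability or raising caspase 3/7 activity in vorinostat-treated resistant cells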 (primary screen)
Cell system: human HCT116-VR colon cancer cells, selected for vorinostat resistance
Reagents: siRNA pool against human genes, 40 nM siRNA pool
Time to read-out: vorinostat for 24 h, read-out about 72 h after transfection
Challenge: vorinostat at 2.5 µM final
Detection: 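Two measures, CellTiter-Fluor viability and luminescent caspase 3/7 activity, each as fold change against same-plate mock wells, mean of duplicates, then screen-wide robust z-score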
Reading the numbers: viability robust z-score: higher = more viable cells than screen typical; caspase robust z-score: higher = more caspase 3/7 activity than screen typical
Call rule: 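Hits are knock-downs in viability class RV1/RV2 or caspase class CA1/CA2, excluding ones that killed cells in the no-drug cell-count arm; hits then retested with single siRNAs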
Shown is one part, drawn at random, of about 18,000 reagents tested. In the full data, 450 (2.5%) were called active. 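Single biological run; no consistent viability z cut-off exists, so the class columns, not z-scores, define the calls.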

| gene knocked down | viability hit class | caspase hit class | viability robust z-score | caspase robust z-score | Call |
| --- | --- | --- | --- | --- | --- |
| MYL6B | no change | no change | 0.39 | -0.42 | inactive |
| TYMSOS | no change | no change | -0.84 | -0.44 | inactive |
| ACR | no change | no change | -0.94 | -0.64 | inactive |
| PFDN4 | no change | no change | 1.71 | -0.2 | inactive |
| CHI3L1 | no change | no change | -0.19 | -0.84 | inactive |
| EDF1 | no change | no change | -0.94 | 1.43 | inactive |
| KCTD20 | no change | no change | 0.53 | 1.77 | inactive |
| IRF4 | no change | no change | 1.16 | -0.78 | inactive |
| FAM20A | no change | no change | -0.28 | 0.94 | inactive |
| APH1B | no change | no change | -0.16 | 0.31 | inactive |
| POGZ | no change | no change | -1.27 | -0.3 | inactive |
| TIE1 | no change | no change | 0.09 | -0.33 | inactive |
| SVBP | no change | no change | -0.2 | -1.09 | inactive |
| ERMARD | no change | no change | 1.77 | 0.38 | inactive |
| ZC3H7A | no change | no change | -0.91 | -0.4 | inactive |
| SOX4 | no change | no change | 1.23 | -0.02 | inactive |
| EPSTI1 | no change | no change | 0.02 | -0.48 | inactive |
| FAM114A1 | no change | no change | -0.14 | 1.32 | inactive |
| BRCC3 | no change | no change | 0.74 | -0.98 | inactive |
| RIC3 | no change | no change | -0.69 | 1.86 | inactive |
| RHBDL3 | no change | no change | -0.3 | -0.61 | inactive |
| DGKA | no change | no change | 0.78 | -0.5 | inactive |
| CAP2 | no change | no change | 0.36 | 2.71 | inactive |

An excerpt from above, reduced to “caspase hit class”.
EPSTI1: no change
FAM114A1: no change
